These are yes or no findings as the source states them, for the method shown. Some binding calls cover weakened binding; strength is not graded here.
T1: Lrig-1 protein stably expressed on the surface of L cells (human) (UniProt Q96JA1)
T1 sequence: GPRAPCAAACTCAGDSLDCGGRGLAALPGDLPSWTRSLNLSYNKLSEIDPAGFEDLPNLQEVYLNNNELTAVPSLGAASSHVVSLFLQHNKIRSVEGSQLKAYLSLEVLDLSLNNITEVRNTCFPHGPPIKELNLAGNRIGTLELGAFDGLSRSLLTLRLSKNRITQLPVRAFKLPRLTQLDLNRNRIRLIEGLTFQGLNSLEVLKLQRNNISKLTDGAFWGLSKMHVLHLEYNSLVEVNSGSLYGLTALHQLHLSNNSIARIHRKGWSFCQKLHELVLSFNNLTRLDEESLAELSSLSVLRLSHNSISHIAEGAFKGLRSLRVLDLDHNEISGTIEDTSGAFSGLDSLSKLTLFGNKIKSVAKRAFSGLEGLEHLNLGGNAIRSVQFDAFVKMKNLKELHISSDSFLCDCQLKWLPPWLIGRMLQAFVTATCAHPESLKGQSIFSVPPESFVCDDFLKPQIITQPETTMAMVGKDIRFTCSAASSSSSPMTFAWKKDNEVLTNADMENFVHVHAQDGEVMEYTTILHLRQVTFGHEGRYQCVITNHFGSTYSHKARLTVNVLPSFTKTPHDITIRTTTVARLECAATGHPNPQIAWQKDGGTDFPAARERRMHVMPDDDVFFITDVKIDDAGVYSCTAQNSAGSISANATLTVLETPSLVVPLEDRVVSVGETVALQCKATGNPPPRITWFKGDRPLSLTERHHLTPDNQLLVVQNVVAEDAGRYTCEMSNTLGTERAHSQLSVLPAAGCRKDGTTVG

T2: Lrig-1 protein as a peptide microarray (1,091 overlapping 15-amino-acid peptides) (UniProt Q96JA1)
T2 sequence (looked up): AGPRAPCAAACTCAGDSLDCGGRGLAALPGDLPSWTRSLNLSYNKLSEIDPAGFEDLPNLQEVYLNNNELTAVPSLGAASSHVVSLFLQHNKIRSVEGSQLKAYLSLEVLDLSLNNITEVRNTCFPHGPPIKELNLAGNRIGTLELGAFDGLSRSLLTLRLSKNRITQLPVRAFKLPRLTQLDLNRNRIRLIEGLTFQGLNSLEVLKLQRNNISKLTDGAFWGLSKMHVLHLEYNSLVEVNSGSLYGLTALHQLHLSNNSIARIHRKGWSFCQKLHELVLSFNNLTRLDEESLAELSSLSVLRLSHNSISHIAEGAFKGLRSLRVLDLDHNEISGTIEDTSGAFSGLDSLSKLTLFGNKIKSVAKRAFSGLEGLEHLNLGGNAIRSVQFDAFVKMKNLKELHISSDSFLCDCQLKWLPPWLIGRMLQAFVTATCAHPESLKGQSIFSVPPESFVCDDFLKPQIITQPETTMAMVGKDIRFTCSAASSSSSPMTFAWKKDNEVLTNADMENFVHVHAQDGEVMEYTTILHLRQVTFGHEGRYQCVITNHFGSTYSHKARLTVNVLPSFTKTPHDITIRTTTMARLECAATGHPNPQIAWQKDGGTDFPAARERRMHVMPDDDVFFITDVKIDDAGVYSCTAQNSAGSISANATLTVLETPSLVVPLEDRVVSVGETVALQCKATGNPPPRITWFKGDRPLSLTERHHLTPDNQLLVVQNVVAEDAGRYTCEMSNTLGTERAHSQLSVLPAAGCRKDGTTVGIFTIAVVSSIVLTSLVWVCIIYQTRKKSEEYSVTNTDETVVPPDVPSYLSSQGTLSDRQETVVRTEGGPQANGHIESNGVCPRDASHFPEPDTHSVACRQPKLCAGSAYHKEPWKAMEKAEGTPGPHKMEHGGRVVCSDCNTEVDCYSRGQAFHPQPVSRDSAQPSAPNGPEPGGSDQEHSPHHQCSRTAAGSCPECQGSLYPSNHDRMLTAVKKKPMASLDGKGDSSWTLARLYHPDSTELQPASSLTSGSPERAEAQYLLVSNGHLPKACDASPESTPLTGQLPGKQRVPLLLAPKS


Key:
[1] = molecular target: T1, Lrig-1 protein stably expressed on the surface of L cells (human); experiment: FACS on L cells stably expressing Lrig-1, eFluor 670 anti-mouse secondary antibody
[2] = molecular target: T2, Lrig-1 protein as a peptide microarray (1,091 overlapping 15-amino-acid peptides); experiment: Lrig-1 peptide microarray, antibody at 1, 10 and 100 ug/ml, fluorescent secondary antibody

Binder	binding [1]	binding [2]
GTC110-02 clone (monoclonal antibody of Preparation Example 2) (antibody, mouse IgG2a, V domains shown) VH: EVQLLESGGGLVQPGGSLRLSCAASGFTFSDYYMSWVRQAPGKGLEWVSGISHDSGSKYYADSVKGRFTISRDNSKNTLYLQMNSLRAEDTAVYYCARHWTTFDYWGQGTLVTVSS VL: QSVLTQPPSASGTPGQRVTISCSGSSSNIGSNNVTWYQQLPGTAPKLLIYANSNRPSGVPDRFSGSKSGTSASLAISGLRSEDEADYYCGAWDYSLSAYVFGGGTKLTVLR	binds	
GTC110-03 clone (monoclonal antibody of Preparation Example 3) (antibody, mouse IgG2a, V domains shown) VH: EVQLLESGGGLVQPGGSLRLSCAASGFTFSNYAMSWVRQAPGKGLEWVSAIYPGGGSIYYADSVKGRFTISRDNSKNTLYLQMNSLRAEDTAVYYCARDILPCPWGRCYYDYAMDVWGQGTLVTVSS VL: QSVLTQPPSASGTPGQRVTISCSDSSSNIGSNTVSWYQQLPGTAPKLLIYADNNRPSGVPDRFSGSKSGTSASLAISGLRSEDEADYYCGTWDYSLSGYVFGGGTKLTVLR	binds	
GTC110-04 clone (monoclonal antibody of Preparation Example 4) (antibody, mouse IgG2a, V domains shown) VH: EVQLLESGGGLVQPGGSLRLSCAASGFTFSNYAMSWVRQAPGKGLEWVSVISHGGGSTYYADSVKGRFTISRDNSKNTLYLQMNSLRAEDTAVYYCARVISNCHLGVCYYSNGMDVWGQGTLVTVSS VL: QSVLTQPPSASGTPGQRVTISCSGSSSNIGNNDVYWYQQLPGTAPKLLIYSDSQRPSGVPDRFSGSKSGTSASLAISGLRSEDEADYYCGTWDYSLSGYVFGGGTKLTVLR	binds	binds

Reference: patent publication US20220249684A1
